Compound in this assay: CN[C@@H]1C[C@H]2O[C@@](C)([C@@H]1OC)n1c3ccccc3c3c4c(c5c6ccccc6n2c5c31)C(=O)NC4 [staurosporine]
The assay is described as follows: log2 fold change of tryptic peptide abundance, ligand vs vehicle (limited proteolysis) (log2 ratio); higher = more trypsin-susceptible (destabilized). The conditions noted are these: ligand concentration: 20 uM; sample: mouse liver crude lysate; replicate design: treated separately.

Amino acid sequences for entries named in this document (tags omitted). A change or cut given only in a name is not applied to a line headed by its entry.
UniProt Q9D902: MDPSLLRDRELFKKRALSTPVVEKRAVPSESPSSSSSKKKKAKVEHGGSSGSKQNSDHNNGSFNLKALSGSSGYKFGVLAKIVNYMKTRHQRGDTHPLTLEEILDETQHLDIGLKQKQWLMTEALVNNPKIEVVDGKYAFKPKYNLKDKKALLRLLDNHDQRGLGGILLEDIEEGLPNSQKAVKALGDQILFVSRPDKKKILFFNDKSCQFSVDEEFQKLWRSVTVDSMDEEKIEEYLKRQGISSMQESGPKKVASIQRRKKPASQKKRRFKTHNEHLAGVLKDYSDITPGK
UniProt Q9D6Y7: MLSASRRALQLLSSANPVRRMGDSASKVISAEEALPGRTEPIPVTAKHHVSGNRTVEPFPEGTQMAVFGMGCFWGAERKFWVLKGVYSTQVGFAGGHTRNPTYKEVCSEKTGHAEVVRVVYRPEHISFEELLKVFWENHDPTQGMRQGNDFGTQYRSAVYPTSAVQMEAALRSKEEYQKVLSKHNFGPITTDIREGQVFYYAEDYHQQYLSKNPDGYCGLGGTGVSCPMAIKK
UniProt Q9D1N2: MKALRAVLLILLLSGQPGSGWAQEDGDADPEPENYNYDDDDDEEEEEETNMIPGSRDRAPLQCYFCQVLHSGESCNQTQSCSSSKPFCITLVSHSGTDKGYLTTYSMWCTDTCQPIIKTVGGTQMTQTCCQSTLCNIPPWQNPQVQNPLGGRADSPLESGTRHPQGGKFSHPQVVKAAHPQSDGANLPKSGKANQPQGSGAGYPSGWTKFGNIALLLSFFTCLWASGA
UniProt Q9D7A8: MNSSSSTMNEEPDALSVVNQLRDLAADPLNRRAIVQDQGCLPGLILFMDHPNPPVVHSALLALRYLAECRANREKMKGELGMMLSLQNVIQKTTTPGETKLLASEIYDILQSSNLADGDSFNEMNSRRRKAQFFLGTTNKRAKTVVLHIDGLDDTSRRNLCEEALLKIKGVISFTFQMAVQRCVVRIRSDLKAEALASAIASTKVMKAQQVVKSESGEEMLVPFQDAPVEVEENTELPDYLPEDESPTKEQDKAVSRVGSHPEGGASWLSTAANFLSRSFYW
UniProt Q9D3W4, whole entry: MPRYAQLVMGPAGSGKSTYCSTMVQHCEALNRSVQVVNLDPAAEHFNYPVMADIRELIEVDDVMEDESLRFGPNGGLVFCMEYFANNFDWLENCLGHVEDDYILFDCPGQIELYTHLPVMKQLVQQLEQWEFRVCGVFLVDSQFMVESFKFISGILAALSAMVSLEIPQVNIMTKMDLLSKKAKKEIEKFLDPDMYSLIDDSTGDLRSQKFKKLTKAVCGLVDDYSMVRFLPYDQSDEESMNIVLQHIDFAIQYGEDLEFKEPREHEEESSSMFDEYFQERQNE
UniProt Q9D8Y1: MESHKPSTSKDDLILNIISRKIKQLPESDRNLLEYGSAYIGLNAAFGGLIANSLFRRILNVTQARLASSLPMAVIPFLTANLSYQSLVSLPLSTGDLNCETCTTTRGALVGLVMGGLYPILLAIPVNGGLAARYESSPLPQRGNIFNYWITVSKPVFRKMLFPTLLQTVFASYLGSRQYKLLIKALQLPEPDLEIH
UniProt Q9D518: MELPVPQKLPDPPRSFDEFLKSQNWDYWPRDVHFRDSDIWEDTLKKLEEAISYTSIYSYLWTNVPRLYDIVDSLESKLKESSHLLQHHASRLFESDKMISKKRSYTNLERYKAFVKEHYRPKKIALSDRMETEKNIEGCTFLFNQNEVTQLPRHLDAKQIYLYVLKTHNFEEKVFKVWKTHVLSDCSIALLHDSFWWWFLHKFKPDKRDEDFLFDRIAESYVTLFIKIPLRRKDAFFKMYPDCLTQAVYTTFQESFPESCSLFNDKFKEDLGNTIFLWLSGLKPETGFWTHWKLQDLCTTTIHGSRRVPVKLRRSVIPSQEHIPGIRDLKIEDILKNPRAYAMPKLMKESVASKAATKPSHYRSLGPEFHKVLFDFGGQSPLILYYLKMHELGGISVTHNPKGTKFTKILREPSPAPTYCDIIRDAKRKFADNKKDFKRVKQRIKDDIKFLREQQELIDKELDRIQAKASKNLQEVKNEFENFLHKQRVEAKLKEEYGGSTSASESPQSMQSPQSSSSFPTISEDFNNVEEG
UniProt Q9D1G5: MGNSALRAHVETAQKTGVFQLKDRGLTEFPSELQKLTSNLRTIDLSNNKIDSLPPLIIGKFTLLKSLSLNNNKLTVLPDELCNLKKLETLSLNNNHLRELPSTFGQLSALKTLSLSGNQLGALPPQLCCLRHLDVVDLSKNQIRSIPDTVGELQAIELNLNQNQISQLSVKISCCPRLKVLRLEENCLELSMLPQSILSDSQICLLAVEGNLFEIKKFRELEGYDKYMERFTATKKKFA
UniProt Q9D8H7: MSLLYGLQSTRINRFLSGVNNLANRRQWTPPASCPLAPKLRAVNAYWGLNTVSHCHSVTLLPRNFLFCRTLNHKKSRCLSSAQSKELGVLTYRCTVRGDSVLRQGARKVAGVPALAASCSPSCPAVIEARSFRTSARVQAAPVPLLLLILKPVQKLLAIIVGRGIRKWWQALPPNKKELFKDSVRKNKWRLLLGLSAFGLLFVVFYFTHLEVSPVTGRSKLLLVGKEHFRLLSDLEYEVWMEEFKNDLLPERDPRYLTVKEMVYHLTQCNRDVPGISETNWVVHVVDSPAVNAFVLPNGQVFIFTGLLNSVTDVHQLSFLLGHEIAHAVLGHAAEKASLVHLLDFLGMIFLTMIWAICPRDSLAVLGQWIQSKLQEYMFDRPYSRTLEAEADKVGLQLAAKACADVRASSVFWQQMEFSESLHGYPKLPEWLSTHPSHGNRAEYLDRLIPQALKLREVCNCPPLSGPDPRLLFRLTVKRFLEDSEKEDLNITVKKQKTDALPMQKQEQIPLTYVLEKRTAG
UniProt Q9DAA6, whole entry: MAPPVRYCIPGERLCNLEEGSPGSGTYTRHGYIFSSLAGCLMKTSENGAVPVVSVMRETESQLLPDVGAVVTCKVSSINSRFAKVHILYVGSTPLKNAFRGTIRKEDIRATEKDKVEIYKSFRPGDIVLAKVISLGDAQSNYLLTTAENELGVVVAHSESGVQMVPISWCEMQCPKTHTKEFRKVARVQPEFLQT
UniProt Q9D880: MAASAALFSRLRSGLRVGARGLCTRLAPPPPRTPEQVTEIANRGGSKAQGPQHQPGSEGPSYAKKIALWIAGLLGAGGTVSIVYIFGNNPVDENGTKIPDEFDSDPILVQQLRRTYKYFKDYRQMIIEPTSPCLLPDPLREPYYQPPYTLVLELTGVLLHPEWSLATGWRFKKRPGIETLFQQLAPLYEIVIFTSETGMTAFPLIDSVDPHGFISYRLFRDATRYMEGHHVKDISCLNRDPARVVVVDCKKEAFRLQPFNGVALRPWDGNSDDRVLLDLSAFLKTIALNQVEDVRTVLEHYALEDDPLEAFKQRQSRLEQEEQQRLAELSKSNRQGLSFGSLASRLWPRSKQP
UniProt Q9D2H6: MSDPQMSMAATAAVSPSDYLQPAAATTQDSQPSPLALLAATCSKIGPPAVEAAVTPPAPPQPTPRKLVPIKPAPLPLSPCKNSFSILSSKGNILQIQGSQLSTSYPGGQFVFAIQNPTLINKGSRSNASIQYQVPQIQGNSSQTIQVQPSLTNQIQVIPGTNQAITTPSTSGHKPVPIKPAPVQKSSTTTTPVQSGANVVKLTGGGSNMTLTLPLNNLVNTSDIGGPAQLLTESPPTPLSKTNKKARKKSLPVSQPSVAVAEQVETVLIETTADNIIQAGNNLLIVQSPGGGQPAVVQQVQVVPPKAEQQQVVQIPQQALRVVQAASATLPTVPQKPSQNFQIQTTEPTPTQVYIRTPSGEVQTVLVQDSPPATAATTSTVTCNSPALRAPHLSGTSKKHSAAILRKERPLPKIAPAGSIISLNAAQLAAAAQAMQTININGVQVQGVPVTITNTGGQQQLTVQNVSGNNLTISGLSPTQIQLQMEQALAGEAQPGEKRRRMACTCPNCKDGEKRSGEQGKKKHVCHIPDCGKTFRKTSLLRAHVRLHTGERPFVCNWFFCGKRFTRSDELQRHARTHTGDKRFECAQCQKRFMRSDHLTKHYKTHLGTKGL
UniProt Q9D9K3: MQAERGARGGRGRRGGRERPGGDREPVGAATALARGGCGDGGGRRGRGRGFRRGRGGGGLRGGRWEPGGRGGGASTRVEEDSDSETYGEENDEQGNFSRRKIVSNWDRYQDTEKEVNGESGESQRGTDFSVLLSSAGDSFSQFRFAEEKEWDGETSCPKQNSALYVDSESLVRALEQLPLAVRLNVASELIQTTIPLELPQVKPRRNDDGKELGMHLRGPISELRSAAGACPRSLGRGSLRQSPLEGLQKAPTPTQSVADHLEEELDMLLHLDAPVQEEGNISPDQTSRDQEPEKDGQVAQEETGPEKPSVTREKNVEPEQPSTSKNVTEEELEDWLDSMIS
UniProt Q9D4J7: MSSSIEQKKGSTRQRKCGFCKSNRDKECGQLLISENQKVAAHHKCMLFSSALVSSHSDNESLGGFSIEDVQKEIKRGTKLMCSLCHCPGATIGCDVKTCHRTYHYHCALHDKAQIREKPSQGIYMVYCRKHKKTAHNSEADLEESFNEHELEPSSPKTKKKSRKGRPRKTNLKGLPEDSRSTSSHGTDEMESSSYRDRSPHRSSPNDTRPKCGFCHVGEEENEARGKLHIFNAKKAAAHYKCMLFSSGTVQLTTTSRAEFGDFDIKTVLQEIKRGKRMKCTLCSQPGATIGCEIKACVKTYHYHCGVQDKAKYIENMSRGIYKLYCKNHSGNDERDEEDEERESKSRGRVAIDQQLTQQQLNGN
UniProt Q9D211: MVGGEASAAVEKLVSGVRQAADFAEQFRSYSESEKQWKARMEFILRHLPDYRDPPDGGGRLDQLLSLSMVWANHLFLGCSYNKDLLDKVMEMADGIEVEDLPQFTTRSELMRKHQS
UniProt Q9D2R0: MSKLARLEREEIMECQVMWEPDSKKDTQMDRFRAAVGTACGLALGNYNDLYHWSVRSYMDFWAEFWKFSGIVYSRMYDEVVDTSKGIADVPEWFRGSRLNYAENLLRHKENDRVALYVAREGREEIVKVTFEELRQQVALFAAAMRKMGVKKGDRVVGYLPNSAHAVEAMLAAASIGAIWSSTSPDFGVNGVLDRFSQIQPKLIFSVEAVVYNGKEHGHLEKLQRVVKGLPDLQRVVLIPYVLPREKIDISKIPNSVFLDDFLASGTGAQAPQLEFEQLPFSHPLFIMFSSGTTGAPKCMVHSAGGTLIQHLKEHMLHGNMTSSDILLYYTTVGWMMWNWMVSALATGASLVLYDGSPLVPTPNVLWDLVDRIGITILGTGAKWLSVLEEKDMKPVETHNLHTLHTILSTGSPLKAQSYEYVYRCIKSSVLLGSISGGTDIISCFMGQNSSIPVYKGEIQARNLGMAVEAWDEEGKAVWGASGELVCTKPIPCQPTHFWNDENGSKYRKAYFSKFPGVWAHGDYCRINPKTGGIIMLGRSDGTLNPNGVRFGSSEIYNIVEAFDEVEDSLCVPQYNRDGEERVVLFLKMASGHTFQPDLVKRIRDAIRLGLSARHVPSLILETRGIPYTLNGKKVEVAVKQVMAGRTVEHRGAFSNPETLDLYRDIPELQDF
UniProt Q9D187: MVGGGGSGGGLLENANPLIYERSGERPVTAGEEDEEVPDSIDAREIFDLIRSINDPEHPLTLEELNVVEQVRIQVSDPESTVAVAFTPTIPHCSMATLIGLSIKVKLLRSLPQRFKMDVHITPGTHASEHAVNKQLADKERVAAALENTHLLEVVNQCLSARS
UniProt Q9D958: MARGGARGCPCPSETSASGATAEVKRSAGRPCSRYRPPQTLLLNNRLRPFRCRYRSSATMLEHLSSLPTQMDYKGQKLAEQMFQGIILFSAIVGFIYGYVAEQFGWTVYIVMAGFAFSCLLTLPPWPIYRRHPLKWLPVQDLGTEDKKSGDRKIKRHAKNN
UniProt Q9D8U8: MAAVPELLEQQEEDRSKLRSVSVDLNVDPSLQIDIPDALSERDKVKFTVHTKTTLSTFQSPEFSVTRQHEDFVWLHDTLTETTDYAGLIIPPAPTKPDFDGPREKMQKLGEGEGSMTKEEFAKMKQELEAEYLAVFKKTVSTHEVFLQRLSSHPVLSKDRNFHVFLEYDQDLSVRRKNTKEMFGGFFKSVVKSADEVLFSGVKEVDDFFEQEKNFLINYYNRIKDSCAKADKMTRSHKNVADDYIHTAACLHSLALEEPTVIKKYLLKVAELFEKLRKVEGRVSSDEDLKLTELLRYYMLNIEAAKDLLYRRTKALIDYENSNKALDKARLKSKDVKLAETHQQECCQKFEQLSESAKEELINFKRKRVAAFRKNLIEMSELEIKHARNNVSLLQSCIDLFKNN
UniProt Q9D1J3: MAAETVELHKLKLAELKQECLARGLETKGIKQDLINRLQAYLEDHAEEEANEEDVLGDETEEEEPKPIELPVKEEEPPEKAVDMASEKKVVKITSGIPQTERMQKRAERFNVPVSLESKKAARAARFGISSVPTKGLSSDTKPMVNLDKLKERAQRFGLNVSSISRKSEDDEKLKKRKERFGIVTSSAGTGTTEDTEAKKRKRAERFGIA
UniProt Q9D2R8: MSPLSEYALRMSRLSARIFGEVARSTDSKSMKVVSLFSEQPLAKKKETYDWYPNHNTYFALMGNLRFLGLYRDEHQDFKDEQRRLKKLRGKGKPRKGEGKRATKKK

The other results are listed elsewhere or left out. Small differences around the control level are noise.

In the case of “UniProt Q9D6R2 (peptide sequence: MSDGLFLQK, peptide start residue: 206)”, the log2 fold change was -0.111.
As for “UniProt Q9D902 (peptide sequence: LLDNHDQR, peptide start residue: 155)”, the log2 fold change was -0.815.
With “UniProt Q9D6Y7 (peptide sequence: VVYRPEHISFEELLK, peptide start residue: 119)”, the log2 fold change is -0.368.
In the case of “UniProt Q9D1N2 (peptide sequence: ADSPLESGTRHPQGGK, peptide start residue: 153)”, the log2 fold change turned out to be 0.151.
For “UniProt Q9D7A8 (peptide sequence: TVVLHIDGLDDTSRR, peptide start residue: 144)”, the log2 fold change was -0.427.
For the target “UniProt Q9D3W4 (peptide sequence: STYCSTMVQHCEALNR, peptide start residue: 17)”, the log2 fold change was -0.0576.
For the target “UniProt Q9D8Y1 (peptide sequence: MESHKPSTSKDDLILNIISR, peptide start residue: 1)”, the log2 fold change is -0.341.
For “UniProt Q9D518 (peptide sequence: DDIKFLR, peptide start residue: 446)”, the log2 fold change was found to be 0.194.
Consider “UniProt Q9D2V5 (peptide sequence: DRVGQNLPLCGTECR, peptide start residue: 172)”, for which the log2 fold change was -0.185.
In the case of “UniProt Q9D1G5 (peptide sequence: AHVETAQK, peptide start residue: 8)”, the log2 fold change was found to be 0.517.
Take “UniProt Q9D8H7 (peptide sequence: QKTDALPMQK, peptide start residue: 496)”: the log2 fold change is -0.31.
In the case of “UniProt Q9D666 (peptide sequence: LSNLEDVLR, peptide start residue: 570)” it was -0.42; in that of “UniProt Q9D483 (peptide sequence: MDQTSSEIVR, peptide start residue: 258)”, -0.375.
“UniProt Q9D892 (peptide sequence: GQTSGQIVMPR, peptide start residue: 134)”: the log2 fold change was -0.348.
For “UniProt Q9D8B3 (peptide sequence: IEQELTAAKK, peptide start residue: 47)”, the log2 fold change was -0.204.
With “UniProt Q9D7X3 (peptide sequence: ATDFIDQALAHKNGR, peptide start residue: 105)”, the log2 fold change was -0.0501.
“UniProt Q9DAA6 (peptide sequence: YCIPGER, peptide start residue: 7)”: the log2 fold change turned out to be 0.191.
Regarding “UniProt Q9D880 (peptide sequence: YMEGHHVK, peptide start residue: 225)”, the log2 fold change was -0.246.
Take “UniProt Q9D2H6 (peptide sequence: MACTCPNCKDGEKR, peptide start residue: 502)”: the log2 fold change is -0.214.
Turning to “UniProt Q9D9K3 (peptide sequence: NDDGKELGMHLR, peptide start residue: 207)”, the log2 fold change was -0.591.
For “UniProt Q9D4J7 (peptide sequence: GKLHIFNAK, peptide start residue: 226)”, the log2 fold change was 0.243.
For “UniProt Q9D211 (peptide sequence: VGGEASAAVEK, peptide start residue: 2)”, the log2 fold change is -0.0136.
In the case of “UniProt Q9D2R0 (peptide sequence: GIPYTLNGK, peptide start residue: 625)” it was 0.158; in that of “UniProt Q9D187 (peptide sequence: MDVHITPGTHASEHAVNK, peptide start residue: 117)”, -0.32; in that of “UniProt Q9D958 (peptide sequence: WLPVQDLGTEDKK, peptide start residue: 136)”, 0.065.
On to “UniProt Q9D8U8 (peptide sequence: EELINFK, peptide start residue: 359)”, for which the log2 fold change was 0.297.
In the case of “UniProt Q9D1J3 (peptide sequence: FNVPVSLESKK, peptide start residue: 110)” it was 0.173; in that of “UniProt Q9D2R8 (peptide sequence: SPLSEYALR, peptide start residue: 2)”, -0.175; in that of “UniProt Q9D832 (peptide sequence: EGDETPNSIPADIVFVIKDKEHPK, peptide start residue: 219)”, 0.155.
Consider “UniProt Q9D7N9 (peptide sequence: RPLRPQVVTDDGQVPEVK, peptide start residue: 11)”, for which the log2 fold change was 0.123.
As for “UniProt Q9D9V3 (peptide sequence: LVEIIGSR, peptide start residue: 214)”, the log2 fold change is -0.647.

Values taken from the supplement of paper PMC12819154, “High-throughput peptide-centric local stability assay extends protein–ligand identification to membrane proteins, tissues and bacteria” (Nature Structural & Molecular Biology, 2025).
